This is an account of results in paper PMC10828586.

The chains behind the UniProt entries cited, without tags or fusion partners.
UniProt Q9DBL9: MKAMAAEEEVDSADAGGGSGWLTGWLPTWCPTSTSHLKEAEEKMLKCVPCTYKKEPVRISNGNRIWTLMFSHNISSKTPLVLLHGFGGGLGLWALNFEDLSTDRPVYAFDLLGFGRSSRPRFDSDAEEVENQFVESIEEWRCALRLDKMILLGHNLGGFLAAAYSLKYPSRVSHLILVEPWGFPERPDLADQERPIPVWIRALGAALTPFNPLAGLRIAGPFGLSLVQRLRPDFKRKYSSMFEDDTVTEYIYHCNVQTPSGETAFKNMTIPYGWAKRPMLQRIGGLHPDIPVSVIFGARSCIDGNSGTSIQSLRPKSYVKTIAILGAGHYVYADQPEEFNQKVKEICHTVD
UniProt P00722: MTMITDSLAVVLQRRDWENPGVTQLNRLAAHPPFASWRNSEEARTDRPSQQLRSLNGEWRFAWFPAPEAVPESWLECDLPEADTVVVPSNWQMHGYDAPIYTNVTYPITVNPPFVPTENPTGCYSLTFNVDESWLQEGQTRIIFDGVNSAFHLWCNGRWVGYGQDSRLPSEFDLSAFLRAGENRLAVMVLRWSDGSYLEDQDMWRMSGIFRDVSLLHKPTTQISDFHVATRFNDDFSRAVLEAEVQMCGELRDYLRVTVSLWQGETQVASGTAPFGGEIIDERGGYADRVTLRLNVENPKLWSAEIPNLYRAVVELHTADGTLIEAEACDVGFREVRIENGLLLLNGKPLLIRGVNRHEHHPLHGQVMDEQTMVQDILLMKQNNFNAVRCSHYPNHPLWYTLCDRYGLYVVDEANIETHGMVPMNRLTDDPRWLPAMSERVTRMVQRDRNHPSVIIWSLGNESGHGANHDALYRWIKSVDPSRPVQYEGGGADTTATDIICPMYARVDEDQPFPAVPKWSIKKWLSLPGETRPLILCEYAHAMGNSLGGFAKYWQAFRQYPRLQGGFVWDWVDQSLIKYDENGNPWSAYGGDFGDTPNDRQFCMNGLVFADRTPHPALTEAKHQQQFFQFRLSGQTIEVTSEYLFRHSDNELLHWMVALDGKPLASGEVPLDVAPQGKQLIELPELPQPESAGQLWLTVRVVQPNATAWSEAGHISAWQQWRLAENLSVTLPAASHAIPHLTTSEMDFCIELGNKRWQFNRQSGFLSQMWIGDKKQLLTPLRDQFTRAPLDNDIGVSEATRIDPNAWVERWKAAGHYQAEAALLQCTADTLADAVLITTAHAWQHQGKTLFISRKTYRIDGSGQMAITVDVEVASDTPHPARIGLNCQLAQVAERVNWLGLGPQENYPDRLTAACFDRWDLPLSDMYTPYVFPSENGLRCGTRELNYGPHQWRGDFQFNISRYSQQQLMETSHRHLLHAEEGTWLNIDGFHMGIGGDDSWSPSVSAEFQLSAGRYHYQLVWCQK

Numbering of substitutions follows the chain as printed. Results are given in words; binding and its absence hold for the method and conditions named. Binding seen in cells or lysates may run through a third protein. Some entries that bind do so weakly or less than the wild type.

The target in one test is FLAG-mCGI-58 (mouse) (UniProt Q9DBL9). Kind of test: co-IP; HEK293T cotransfected with FLAG-mCGI-58 and Xpress-mATGL variants; lysis in 50 mM Tris-HCl pH 7.4, 150 mM NaCl, 1% NP-40, 1 mM EDTA; 2 mg lysate on Anti-FLAG M2 affinity gel, 4°C, 3 h; immunoblot with anti-Xpress and anti-FLAG.
For test [1], the target named is T1, smt3-mATGL288-StrepII I212A (Mus musculus) (UniProt Q8BJ56).
T1 sequence: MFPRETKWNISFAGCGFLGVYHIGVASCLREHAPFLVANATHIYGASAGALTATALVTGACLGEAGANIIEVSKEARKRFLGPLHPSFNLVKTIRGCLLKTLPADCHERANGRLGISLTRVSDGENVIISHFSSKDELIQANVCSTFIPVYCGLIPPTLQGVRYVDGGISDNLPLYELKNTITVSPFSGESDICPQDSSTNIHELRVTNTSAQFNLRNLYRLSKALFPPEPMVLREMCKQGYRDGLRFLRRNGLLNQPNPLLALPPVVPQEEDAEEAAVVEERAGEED
In words: pull-down; copurification: both proteins coexpressed in E. coli ArcticExpress (DE3) from polycistronic pST44; cleared lysate loaded on a StrepTrap HP column that holds the StrepII-tagged mATGL288; washes incl. 500 mM KCl; eluted with 10 mM desthiobiotin; fractions immunoblotted with anti-His (mCGI-58) and anti-Strep (mATGL288).

Test [2] addresses T2, smt3-mATGL288-StrepII I212S (Mus musculus) (UniProt Q8BJ56).
T2 sequence: T1 sequence with A212S
The description is as above.

The target of test [3] is T3, smt3-mATGL288-StrepII N215A (Mus musculus) (UniProt Q8BJ56).
T3 sequence: T1 sequence with A212I, N215A
Described as above.

The target of test [4] is T4, smt3-mATGL288-StrepII (mouse adipose triglyceride lipase truncated after residue 288), WT (Mus musculus) (UniProt Q8BJ56).
T4 sequence: T1 sequence with A212I
The description is as above.

Test [5] addresses T5, smt3-mATGL288-StrepII N209A (Mus musculus) (UniProt Q8BJ56).
T5 sequence: T1 sequence with N209A, A212I
The test is described as above.

Test [6] deals with T6, smt3-mATGL288-StrepII N209A/I212A/N215A (Mus musculus) (UniProt Q8BJ56).
T6 sequence: T1 sequence with N209A, N215A
Described as above.

In the case of “Xpress-LacZ (from UniProt P00722 1-1024)”, the binding result with FLAG-mCGI-58 (mouse) was “no binding”.

Regarding “smt3-mCGI-58-His6 (mouse comparative gene identification-58) (from UniProt Q9DBL9 1-351)”, the binding entry in test [1], in test [2], in test [3], in test [4], in test [5] and in test [6] was “binds” throughout.
